29 substances from US20240108662A1, “ENGINEERED CELLS FUNCTIONALIZED WITH IMMUNE CHECKPOINT MOLECULES AND USES THEREOF” (The University of North Carolina at Chapel Hill, priority 2020, published 2024) can be followed below.

This data set in a line: Proteomic analysis of native murine pancreata and decelled pancreatic ECM (Table 1). More on the design: species or system mouse. Particulars: for Pancreatic ECM: Mean of log2(intensities): abundance of the listed protein in decelled pancreatic ECM; for Native pancreas tissue: Mean of log2(intensities): abundance of the listed protein in native murine pancreas tissue.

Consider A2A5R2, for which the “Pancreatic ECM: Mean of log2(intensities)” value amounted to 24.24 a.u and the “Native pancreas tissue: Mean of log2(intensities)” value is 21.24 a.u.

On to E9PZJ8, for which the “Pancreatic ECM: Mean of log2(intensities)” value worked out at 25.52 a.u and the “Native pancreas tissue: Mean of log2(intensities)” value is 22.55 a.u.

In the case of E9Q4Z2, the “Pancreatic ECM: Mean of log2(intensities)” value is 25.49 a.u and the “Native pancreas tissue: Mean of log2(intensities)” value stood at 22.11 a.u.

As for O35129, the “Mean of log2(intensities)” value turned out to be 28.74 a.u (Native pancreas tissue) and 30.48 a.u (Pancreatic ECM (decelled)).

Consider P02463, for which the “Pancreatic ECM: Mean of log2(intensities)” value is reported as 31.70 a.u and the “Native pancreas tissue: Mean of log2(intensities)” value is 28.24 a.u.

For P02468, the “Pancreatic ECM: Mean of log2(intensities)” value is listed as 29.87 a.u and the “Native pancreas tissue: Mean of log2(intensities)” value stood at 28.48 a.u.

Regarding P35293, the “Mean of log2(intensities)” value is, setting by setting: (Native pancreas tissue) 26.74 a.u; (Pancreatic ECM (decelled)) 28.70 a.u.

P42227: the “Mean of log2(intensities)” value by setting is: (Native pancreas tissue) 21.60 a.u; (Pancreatic ECM (decelled)) 23.98 a.u.

As for P61620;Q9JLR1, the “Mean of log2(intensities)” value is, setting by setting: (Native pancreas tissue) 31.46 a.u; (Pancreatic ECM (decelled)) 33.76 a.u.

Consider P70227, for which the “Pancreatic ECM: Mean of log2(intensities)” value came out at 25.73 a.u and the “Native pancreas tissue: Mean of log2(intensities)” value is given as 21.85 a.u.

Turning to Q6A009, the “Pancreatic ECM: Mean of log2(intensities)” value turned out to be 25.83 a.u and the “Native pancreas tissue: Mean of log2(intensities)” value amounted to 21.11 a.u.

Q6NS46: the “Pancreatic ECM: Mean of log2(intensities)” value is on record as 26.22 a.u and the “Native pancreas tissue: Mean of log2(intensities)” value is 21.11 a.u.

As to Q6PHN9, the “Pancreatic ECM: Mean of log2(intensities)” value is 24.73 a.u and the “Native pancreas tissue: Mean of log2(intensities)” value was 21.78 a.u.

For the substance Q6PHZ2, the “Pancreatic ECM: Mean of log2(intensities)” value came to 25.75 a.u and the “Native pancreas tissue: Mean of log2(intensities)” value worked out at 21.45 a.u.

Turning to Q8BVY0, the “Pancreatic ECM: Mean of log2(intensities)” value is given as 26.14 a.u and the “Native pancreas tissue: Mean of log2(intensities)” value came out at 21.42 a.u.

In the case of Q8BWW4, the “Pancreatic ECM: Mean of log2(intensities)” value is listed as 25.03 a.u and the “Native pancreas tissue: Mean of log2(intensities)” value is 21.60 a.u.

Q8VDB2: the “Mean of log2(intensities)” value turned out to be 21.49 a.u (Native pancreas tissue) and 24.01 a.u (Pancreatic ECM (decelled)).

For Q8VEK3, the “Pancreatic ECM: Mean of log2(intensities)” value is given as 29.90 a.u and the “Native pancreas tissue: Mean of log2(intensities)” value is reported as 28.28 a.u.

On to Q9CR57, for which the “Mean of log2(intensities)” value came out at 31.06 a.u (Native pancreas tissue) and 33.25 a.u (Pancreatic ECM (decelled)).

For Q9WV70, the “Mean of log2(intensities)” value came out at 21.56 a.u (Native pancreas tissue) and 24.16 a.u (Pancreatic ECM (decelled)).

For Q9Z329, the “Pancreatic ECM: Mean of log2(intensities)” value is listed as 26.22 a.u and the “Native pancreas tissue: Mean of log2(intensities)” value was determined as 21.31 a.u.

For the substance Q80TL7, the “Pancreatic ECM: Mean of log2(intensities)” value stood at 24.71 a.u and the “Native pancreas tissue: Mean of log2(intensities)” value was found to be 21.45 a.u.

Q91VE6: the “Pancreatic ECM: Mean of log2(intensities)” value was determined as 25.52 a.u and the “Native pancreas tissue: Mean of log2(intensities)” value was determined as 21.74 a.u.

With Q570Y9, the “Mean of log2(intensities)” value (Native pancreas tissue) turned out to be 23.97 a.u and the “Mean of log2(intensities)” value (Pancreatic ECM (decelled)) was found to be 25.58 a.u.

Turning to Q01149, the “Pancreatic ECM: Mean of log2(intensities)” value stood at 34.11 a.u and the “Native pancreas tissue: Mean of log2(intensities)” value is given as 29.57 a.u.

For the substance Q09143, the “Mean of log2(intensities)” value reads like this: (Native pancreas tissue) 24.66 a.u; (Pancreatic ECM (decelled)) 26.76 a.u.

Take Q60997: the “Pancreatic ECM: Mean of log2(intensities)” value is 33.47 a.u and the “Native pancreas tissue: Mean of log2(intensities)” value came out at 30.73 a.u.

In the case of Q61102, the “Mean of log2(intensities)” value by setting is: (Native pancreas tissue) 23.88 a.u; (Pancreatic ECM (decelled)) 25.63 a.u.

Regarding Q61879, the “Pancreatic ECM: Mean of log2(intensities)” value worked out at 26.24 a.u and the “Native pancreas tissue: Mean of log2(intensities)” value came out at 21.62 a.u.
